PubChem BioAssay AID504784 – Drosophila RNAi Screening Center – 2011

Screen: 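Search for regulators of lipid droplet storage in oleate-fed fly cells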 (primary screen)
System: Drosophila Kc167 embryonic cells
Reagents: long dsRNA against Drosophila genes, about 250 ng dsRNA per well
Timing: 4 days
Treatment: cells fed 400 µM oleic acid bound to BSA
Measured: 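Microscope images give a droplet-to-nucleus area ratio, taken as log and converted to a screen-wide B-score; higher values mean greater lipid storage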
Direction: droplet/nuclear area B-score: higher = more stored lipid (overstorage)
The deposit covers about 17,000 reagents; below is a random part of those with a known target gene and a result. 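Each column is one replicate's B-score; the combined score over replicates was not deposited, so single values may mislead.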 Reagents against one gene are numbered here. A plus sign joins genes that one reagent is predicted to hit. Not all columns of the deposit are shown.

no.	Target gene	dsRNA no.	droplet/nuclear area B-score, replicate 1
1	lncRNA:CR32553	1	0.694
2	SdhB	1	0.815
3	SdhB	2	-0.264
4	aus	1	-0.371
5	aus	2	0.57
6	aus	3	2.67
7	CG10147	1	-0.724
8	fog	1	-0.416
9	l(3)L1231	1	1.8
10	CG9400	1	-0.903
11	SrpRalpha	1	2.1
12	Nplp2	1	-0.255
13	ck	1	-0.0379
14	CG6567 + CG42394	1	0.911
15	CG18004	1	-0.0596
16	CG14492	1	-1.16
17	CG17097	1	-1.08
18	CG4586	1	1.58
19	Scox	1	1.99
20	Ocho	1	-0.0171
21	H2.0	1	1.66
22	H2.0	2	0.444
23	grau	1	4.73
24	Pgant35A	1	0.753
25	CRAT	1	-1.57
26	Obp85a	1	-0.0221
27	Jon65Aii	1	0.462
28	CG15745 (retired record)	1	-1.54
29	CanB2	1	-1.72
30	ocm	1	2.1
31	Tif-IA	1	-0.479
32	Tif-IA	2	-0.077
33	CG7907	1	0.563
34	NaCP60E	1	0.312
35	NaCP60E	2	1.05
36	Nxf3	1	-0.249
37	Flo2	1	1.12
38	Flo2	2	1.33
39	CG32706 + CG6999	1	-0.917
40	CG31668	1	1.06
41	Eglp2	1	-0.288
42	CG11369	1	-0.591
43	Gr85a	1	0.106
44	CG8046	1	-2.63
45	tei	1	1.77
46	CG11360	1	0.375
47	btd	1	-0.428
48	CG33178	1	-0.84
49	mRpL16	1	0.0431
50	Dlish	1	0.394
51	CG14893	1	-0.655
52	CG2104	1	0.778
53	GABA-B-R3	1	-0.839
54	beta-Spec	1	-1.16
55	Dgp-1	1	0.0176
56	CG30395	1	-0.00608

A few values from above:
CG7907, droplet/nuclear area B-score, replicate 1 → 0.563
Result for Dgp-1 in “droplet/nuclear area B-score, replicate 1”: 0.0176
H2.0 #1, droplet/nuclear area B-score, replicate 1 → 1.66
Under “droplet/nuclear area B-score, replicate 1”, CG15745 (retired record) is entered as -1.54
Under “droplet/nuclear area B-score, replicate 1”, grau is entered as 4.73
Entry for Eglp2 in “droplet/nuclear area B-score, replicate 1”: -0.288
